Here are results for 1 molecule from PubChem BioAssay AID248 (DTP/NCI, 2004).

The list is a part of this screen's results and no random one: its compounds were picked by chemical class. Other doses and runs of a compound may be missing. T/C: endpoint of the treated group in % of that of the vehicle group. Where survival is the endpoint, this PubChem deposit counts one and a half times the control or more as active, and values a quarter to a half above the control carry no call in these data; other NCI protocols may use other cut-offs. Schedules are NCI's codes, read here as Q, the interval in days (D) or hours (H), X, the number of doses. Some T/C values are marked as having no survivor count here; that says nothing about deaths at the dose. Some entries were tested several times; their values stand side by side, smallest first.

The subject of this assay is L1210 leukemia ip in BDF1 mice, survival T/C. Description: NCI In Vivo Anticancer Drug Screen. Data for tumor model L1210 Leukemia (intraperitoneal) in B6D2F1 (BDF1) mice. Conditions: T/C endpoint: mean survival time, vehicle: other, higher T/C = longer survival.

As to `CC(=O)OCC12CCC(C)=CC1OC1C(O)C(O)C2(C)C12CO2` (stereo not drawn), the T/C is 124 % of control [survivor count not shown] (dose: 0.01 mg/kg/injection, schedule: Q04DX003 (ip)); 111 [survivor count not shown] and 118 % of control [survivor count not shown] (dose: 0.02 mg/kg/injection, schedule: Q01DX009 (ip)); 136 % of control [survivor count not shown] (dose: 0.02 mg/kg/injection, schedule: Q04DX003 (ip)); 133 [survivor count not shown] and 134 % of control [survivor count not shown] (dose: 0.05 mg/kg/injection, schedule: Q01DX009 (ip)); 140 % of control [survivor count not shown] (dose: 0.05 mg/kg/injection, schedule: Q04DX003 (ip)); 146 [survivor count not shown] and 148 % of control [survivor count not shown] (dose: 0.1 mg/kg/injection, schedule: Q01DX009 (ip)). Moreover, the T/C was 139 % of control [survivor count not shown] (dose: 0.1 mg/kg/injection, schedule: Q04DX003 (ip)); 131 [survivor count not shown] and 141 % of control [survivor count not shown] (dose: 0.2 mg/kg/injection, schedule: Q01DX009 (ip)); 139 % of control [survivor count not shown] (dose: 0.2 mg/kg/injection, schedule: Q04DX003 (ip)); 159 [survivor count not shown] and 171 % of control [survivor count not shown] (dose: 0.4 mg/kg/injection, schedule: Q01DX009 (ip)); 113 % of control [survivor count not shown] (dose: 0.4 mg/kg/injection, schedule: Q04DX003 (ip)); 121 [survivor count not shown] and 183 % of control [survivor count not shown] (dose: 0.8 mg/kg/injection, schedule: Q01DX009 (ip)). The T/C (dose: 1.6 mg/kg/injection, schedule: Q01DX009 (ip)) is 90 % of control [survivor count not shown].
